Laboratory results from patent US20080027145A1, “Therapeutic Molecules and Methods for Generating and/or Selecting Same” (priority 2004, published 2008).
Results are given in words; binding and its absence hold for the method and conditions named. In cells and extracts the contact can be indirect. Some entries that bind do so weakly or less than the wild type. Tags and fused reporters may be left off the sequences shown.

Protein sequences, listed by entry. Tags and fused reporters are not part of them. Lines headed by an entry give the natural chain unless they say otherwise; changes in a name come on top. Chains listed by the source or under a name are the forms on record and can include a tag or linker.
FLAG-tagged mouse Mcl-1 (full-length) (P97287, form named): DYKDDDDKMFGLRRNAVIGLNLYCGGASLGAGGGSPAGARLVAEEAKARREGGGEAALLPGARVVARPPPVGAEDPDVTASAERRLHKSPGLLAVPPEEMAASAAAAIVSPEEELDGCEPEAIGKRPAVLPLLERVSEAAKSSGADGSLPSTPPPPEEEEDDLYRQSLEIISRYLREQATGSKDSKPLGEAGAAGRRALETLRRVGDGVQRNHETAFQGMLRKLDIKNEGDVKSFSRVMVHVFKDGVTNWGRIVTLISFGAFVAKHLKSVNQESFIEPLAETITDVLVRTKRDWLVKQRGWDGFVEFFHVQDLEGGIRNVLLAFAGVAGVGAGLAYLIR
FLAG-tagged human Bcl-xL (full-length) (Q07817, form named): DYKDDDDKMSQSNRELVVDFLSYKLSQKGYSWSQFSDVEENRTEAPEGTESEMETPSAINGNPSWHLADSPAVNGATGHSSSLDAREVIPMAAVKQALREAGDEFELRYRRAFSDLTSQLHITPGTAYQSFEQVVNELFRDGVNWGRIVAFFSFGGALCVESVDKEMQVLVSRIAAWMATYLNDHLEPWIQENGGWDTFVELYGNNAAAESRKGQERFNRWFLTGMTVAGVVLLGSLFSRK
FLAG-tagged human Bcl-2 (full-length) (P10415, form named): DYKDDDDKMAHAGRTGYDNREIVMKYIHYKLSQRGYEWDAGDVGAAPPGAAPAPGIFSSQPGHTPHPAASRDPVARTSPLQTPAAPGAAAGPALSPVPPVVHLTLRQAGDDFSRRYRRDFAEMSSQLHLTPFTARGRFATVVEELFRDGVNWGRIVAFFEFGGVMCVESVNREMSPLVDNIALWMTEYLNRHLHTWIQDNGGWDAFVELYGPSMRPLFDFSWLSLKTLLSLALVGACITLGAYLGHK

What was measured:
[1] = molecular target: FLAG-tagged mouse Mcl-1 (full-length) (mouse) (UniProt P97287); assay: co-immunoprecipitation from 35S-labelled 293T cell lysates
[2] = molecular target: FLAG-tagged mouse Mcl-1 (full-length) (mouse) (UniProt P97287); assay: co-immunoprecipitation from 293T cells
[3] = molecular target: FLAG-tagged mouse Mcl-1 (full-length) (mouse) (UniProt P97287); assay: co-immunoprecipitation from 35S-labelled 293T cell lysates (FIG. 3B)
[4] = molecular target: FLAG-tagged mouse Mcl-1 (full-length) (mouse) (UniProt P97287); assay: co-immunoprecipitation from 35S-labelled 293T lysates (IP anti-HA, anti-FLAG, control), fluorography
[5] = molecular target: FLAG-tagged human Bcl-xL (full-length) (human) (UniProt Q07817); assay: co-immunoprecipitation from 35S-labelled 293T cell lysates
[6] = molecular target: FLAG-tagged human Bcl-2 (full-length) (human) (UniProt P10415); assay: as above
[7] = molecular target: FLAG-tagged human Bcl-xL (full-length) (human) (UniProt Q07817); assay: co-immunoprecipitation from 293T cells
[8] = molecular target: FLAG-tagged human Bcl-2 (full-length) (human) (UniProt P10415); assay: co-immunoprecipitation from 293T cells
[9] = molecular target: FLAG-tagged human Bcl-xL (full-length) (human) (UniProt Q07817); assay: co-immunoprecipitation from 293T lysates, 35S fluorography (D) and immunoblot of the same filters (E) [E]
[10] = molecular target: FLAG-tagged human Bcl-2 (full-length) (human) (UniProt P10415); assay: as above
[11] = molecular target: FLAG-tagged human Bcl-xL (full-length) (human) (UniProt Q07817); assay: co-immunoprecipitation from 35S-labelled 293T cell lysates, immunoblot (FIG. 3D, 3E)
[12] = molecular target: FLAG-tagged human Bcl-2 (full-length) (human) (UniProt P10415); assay: as above
[13] = molecular target: FLAG-tagged mouse Mcl-1 (full-length) (mouse) (UniProt P97287); assay: co-immunoprecipitation from 35S-labelled 293T cell lysates, immunoblot (FIG. 3F, 3G)
[14] = molecular target: FLAG-tagged mouse Mcl-1 (full-length) (mouse) (UniProt P97287); assay: co-immunoprecipitation from 293T lysates, 35S fluorography (F) and immunoblot of the same filters (G) [G]

Measured: binding

B1: HA-tagged full-length human Puma (protein)
chain: YPYDVPDYAMARARQEGSSPEPVEGLARDGPRPFPLGRLVPSAVSCGLCEPGLAAAPAAPTLLPAAYLCAPTAPPAVTAALGGSRWPGGPRSRPRGPRPDGPQPSLSLAEQHLESPVPSAPGALAGGPTQAAPGVRGEEEQWAREIGAQLRRMADDLNAQYERRRQEEQQRHRPSPWRVLYNLIMGLLPLPRGHRAPEMEPN
binds: [1] | [2] | [3] | [4]

B2: HA-tagged full-length mouse Bad (protein)
chain: YPYDVPDYAMGTPKQPSLAPAHALGLRKSDPGIRSLGSDAGGRRWRPAAQSMFQIPEFEPSEQEDASATDRGLGPSLTEDQPGPYLAPGLLGSNIHQQGRAATNSHHGGAGAMETRSRHSSYPAGTEEDEGMEEELSPFRGRSRSAPPNLWAAQRYGRELRRMSDEFEGSFKGLPRPKSAGTATQMRQSAGWTRIIQSWWDRNLGKGGSTPSQ
binds: [5] | [6] | [7] | [8] | [9] | [10] | [11] | [12]

B3: HA-tagged full-length mouse Noxa (protein)
chain: YPYDVPDYAMPGRKARRNAPVNPTRAELPPEFAAQLRKIGDKVYCTWSAPDITVVLAQMPGKSQKSRMRSPSPTRVPADLKDECAQLRRIGDKVNLRQKLLNLISKLFNLVT
binds: [1] | [13] | [2] | [14]
